In PMC3387196 one finds binding data, which are given here for five substances.

Sequences of proteins named here, by UniProt entry; tags and fusion partners are left off. A change or cut given only in a name is not applied to a line headed by its entry. Residues count along the entry.
UniProt P46935: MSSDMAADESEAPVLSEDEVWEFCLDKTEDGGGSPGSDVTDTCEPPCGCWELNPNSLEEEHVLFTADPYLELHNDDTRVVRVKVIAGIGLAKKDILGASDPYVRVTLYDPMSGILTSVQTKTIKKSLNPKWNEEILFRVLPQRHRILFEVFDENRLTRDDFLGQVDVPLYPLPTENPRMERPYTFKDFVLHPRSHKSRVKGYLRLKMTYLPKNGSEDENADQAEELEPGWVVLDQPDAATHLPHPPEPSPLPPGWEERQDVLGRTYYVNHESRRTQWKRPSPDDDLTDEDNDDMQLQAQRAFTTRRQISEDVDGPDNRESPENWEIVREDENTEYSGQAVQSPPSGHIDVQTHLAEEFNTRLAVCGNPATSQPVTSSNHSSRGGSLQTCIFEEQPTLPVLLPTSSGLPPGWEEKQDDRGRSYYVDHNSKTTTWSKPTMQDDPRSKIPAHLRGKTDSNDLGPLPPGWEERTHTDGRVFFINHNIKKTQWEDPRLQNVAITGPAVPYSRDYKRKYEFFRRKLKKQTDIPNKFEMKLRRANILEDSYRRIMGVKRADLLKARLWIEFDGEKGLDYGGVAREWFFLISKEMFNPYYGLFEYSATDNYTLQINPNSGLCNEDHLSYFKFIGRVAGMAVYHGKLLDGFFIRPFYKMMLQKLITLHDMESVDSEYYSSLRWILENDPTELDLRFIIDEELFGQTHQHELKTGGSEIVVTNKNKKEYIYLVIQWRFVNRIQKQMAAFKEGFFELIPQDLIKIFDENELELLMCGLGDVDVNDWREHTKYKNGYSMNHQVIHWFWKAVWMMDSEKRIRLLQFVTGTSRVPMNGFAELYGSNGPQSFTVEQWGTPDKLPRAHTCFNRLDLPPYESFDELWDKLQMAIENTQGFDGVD
GST-Nedd4 WW (250-549): residues 250-549 of P46935

Results are given in words; binding and its absence hold for the method and conditions named. Binding seen in cells or lysates may run through a third protein. Some entries that bind do so weakly or less than the wild type. For part of these data: Where a sequence is shown, tags or fusion partners need not be part of it.

Assay [1] has as its target FLAG-Kif26b (full-length), expressed in HEK293 cells (mouse) (UniProt Q7TNC6). In words: co-IP; HEK293 cells co-transfected with FLAG-Kif26b constructs and Myc-Nedd4; anti-FLAG beads, 2 h at 4°C; lysis buffer 50 mM Tris-HCl pH 7.5, 100 mM NaCl, 10% glycerol, 5 mM EDTA, 0.5% Triton X-100; immunoblot; in Figure 3A cells treated 6 h with DMSO or Roscovitine (20 µM). (A western blot detects proteins with antibodies after separation by electrophoresis.)

Assay [2] deals with FLAG-Kif26b S1962A (mouse) (UniProt Q7TNC6). The description is as above.
Assay [3] addresses FLAG-Kif26b T1859A (mouse) (UniProt Q7TNC6). The assay is described as above.
The target of assay [4] is FLAG-Kif26b T1859A/S1962A (mouse) (UniProt Q7TNC6). The description is as above.
For assay [5], the target named is T1, FLAG-Kif26b ΔMotor (799-2112) (mouse) (UniProt Q7TNC6).
T1 sequence: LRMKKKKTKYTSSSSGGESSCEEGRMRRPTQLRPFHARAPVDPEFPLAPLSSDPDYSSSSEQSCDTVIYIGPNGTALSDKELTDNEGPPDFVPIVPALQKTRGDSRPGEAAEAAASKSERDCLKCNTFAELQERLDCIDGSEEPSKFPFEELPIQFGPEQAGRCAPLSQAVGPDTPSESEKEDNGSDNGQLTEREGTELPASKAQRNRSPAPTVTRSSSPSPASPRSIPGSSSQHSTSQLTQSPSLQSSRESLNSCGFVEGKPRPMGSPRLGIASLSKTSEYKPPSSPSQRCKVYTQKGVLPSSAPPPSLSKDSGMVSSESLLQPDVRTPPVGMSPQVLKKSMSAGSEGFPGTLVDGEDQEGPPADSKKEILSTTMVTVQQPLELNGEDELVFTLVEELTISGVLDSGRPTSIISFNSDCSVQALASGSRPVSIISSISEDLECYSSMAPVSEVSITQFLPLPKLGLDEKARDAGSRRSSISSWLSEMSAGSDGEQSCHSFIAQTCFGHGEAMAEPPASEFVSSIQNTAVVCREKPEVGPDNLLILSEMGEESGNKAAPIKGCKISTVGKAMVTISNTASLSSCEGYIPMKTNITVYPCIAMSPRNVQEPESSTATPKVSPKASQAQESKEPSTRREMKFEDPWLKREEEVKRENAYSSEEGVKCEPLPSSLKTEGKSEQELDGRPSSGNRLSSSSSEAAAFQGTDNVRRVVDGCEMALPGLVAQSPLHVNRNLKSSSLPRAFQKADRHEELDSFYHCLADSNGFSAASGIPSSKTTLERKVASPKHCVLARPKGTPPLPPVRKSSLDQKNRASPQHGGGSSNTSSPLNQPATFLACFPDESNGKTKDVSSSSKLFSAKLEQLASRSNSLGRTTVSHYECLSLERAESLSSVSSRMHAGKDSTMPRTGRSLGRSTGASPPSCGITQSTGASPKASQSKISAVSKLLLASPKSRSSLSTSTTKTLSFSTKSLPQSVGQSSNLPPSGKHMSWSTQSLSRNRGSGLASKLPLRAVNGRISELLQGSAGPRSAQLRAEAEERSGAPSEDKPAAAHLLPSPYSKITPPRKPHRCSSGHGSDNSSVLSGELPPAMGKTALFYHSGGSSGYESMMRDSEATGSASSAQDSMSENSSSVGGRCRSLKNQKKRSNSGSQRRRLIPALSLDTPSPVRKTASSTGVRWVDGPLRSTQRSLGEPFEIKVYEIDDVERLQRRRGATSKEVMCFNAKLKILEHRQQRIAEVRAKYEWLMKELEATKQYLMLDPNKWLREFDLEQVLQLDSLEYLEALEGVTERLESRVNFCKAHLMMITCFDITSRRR
The description is as above.

For assay [6], the target named is GST-Nedd4 WW (250-549) (mouse) (UniProt P46935). Briefly: pull-down; lysates of HEK293 cells expressing FLAG-Kif26b incubated with purified GST or GST-tagged Nedd4 deletions; glutathione bead precipitates immunoblotted; only the target purified.
The target in assay [7] is Kif26b, endogenous in E14.5 mouse kidney (mouse (endogenous in E14.5 kidney)) (UniProt Q7TNC6). Briefly: co-IP; endogenous proteins; E14.5 kidney lysates, immunoprecipitation with anti-Kif26b antibody, immunoblot; kidneys cultured 8 h with or without roscovitine (20 µM) in Figure 7A; rabbit IgG as control.

For “Myc-Nedd4 wild type (full-length mouse Nedd4) (from UniProt P46935 1-887) (enzyme)”, the binding result in assay [1], in assay [2], in assay [3], in assay [4] and in assay [5] was “binds” throughout.

In the case of “FLAG-Kif26b (full-length), expressed in HEK293 cells (from UniProt Q7TNC6 1-2112)”, the binding entry in assay [6] is listed as “binds”. With “CDK5, endogenous in E14.5 mouse kidney (from UniProt P49615 1-292) (enzyme)”, the binding result in assay [7] was “binds”. On to “Nedd4, endogenous in mouse kidney (from UniProt P46935 1-887) (enzyme)”, for which the binding result in assay [7] is recorded as “binds”.

For the substance “Myc-Nedd4 CS (catalytically inactive C854S mutant) (from UniProt P46935 1-887) (enzyme)”, the binding result in assay [1] is given as “binds”.
